# Results deposited as PubChem BioAssay AID602196 (INSERM, 2012)
# Screen: 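Genes whose knock-down alters cisplatin killing of lung cancer cells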
# Cell system: human A549 lung cancer cells
# Reagents: siRNA pair against human genes
# Timing: 48 h transfection before cisplatin; time from cisplatin to read-out not stated
# Conditions: cisplatin at a dose killing half of control-siRNA cells; exact dose and duration not given
# Measured: 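Cisplatin cell death as a shift from the 50% death seen with control siRNA; siRNAs toxic or growth-blocking alone scored 0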
# Scale: two-siRNA summed score (-2 to +2): higher = both siRNAs protect from cisplatin killing; -2 means both sensitise; mean protection from cisplatin (shift in death) and protection from cisplatin (shift in death), siRNA C and protection from cisplatin (shift in death), siRNA D: higher = protection from cisplatin killing
# Call rule: 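siRNAs harmful alone (LDH or WST-1) get 0; others get +1 for less and -1 for more cisplatin killing; genes are active when the two siRNAs give the same sign, summing to ±2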
# Meaning of the calls: active = both siRNAs shift cisplatin killing the same way; inactive = no consistent shift, or siRNA harmful alone
# Shown is an unselected part of about 23,000 deposited reagents. 455 of all reagents (2%) count as active. 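Active includes both protection and sensitisation; some change values fall well beyond the stated -50 to +50 range.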 Not given: the amount of reagent.
gene symbol,two-siRNA summed score (-2 to +2),mean protection from cisplatin (shift in death) (%),"protection from cisplatin (shift in death), siRNA C (%)","protection from cisplatin (shift in death), siRNA D (%)",Outcome
PIGY,0,12.1,4.3,19.9,inactive
FFAR3,0,1.2,12.2,-9.8,inactive
OCIAD1,0,1.1,1.2,0.9,inactive
TTLL10,0,11,7.7,14.4,inactive
RNF2,0,9.6,8.9,10.4,inactive
ATP8B4,0,-10.4,-8.7,-12.2,inactive
DAD1,0,-4,-1.7,-6.4,inactive
SMTN,0,4.6,8.9,0.2,inactive
LOC390358,0,3.2,4.3,2.1,inactive
CIMIP5,0,8.5,8,8.9,inactive
ZNF439,1,12.7,11.5,13.9,inactive

Part of the list above, showing only “two-siRNA summed score (-2 to +2)”:
TTLL10 = 0
RNF2 = 0

The list goes on:
gene symbol,two-siRNA summed score (-2 to +2),mean protection from cisplatin (shift in death) (%),"protection from cisplatin (shift in death), siRNA C (%)","protection from cisplatin (shift in death), siRNA D (%)",Outcome
LOC128710,0,6,13.2,-1.2,inactive
POMZP3,0,-8.6,-4.5,-12.7,inactive
TMEM88,0,7.5,12.9,2.2,inactive
ZNF285,-1,-14,-14,-14,inactive
IL5,0,0.9,-5.3,7.1,inactive
SLC35A4,0,4.9,2.8,7,inactive
LOC400957,0,6.9,3.6,10.1,inactive
GNA14,0,-4.6,-3.1,-6.1,inactive
CLEC4E,0,3.2,11.1,-4.8,inactive
DDB1,0,8.4,20.4,-3.7,inactive
TPRX1,0,-2.4,-4.9,0.1,inactive
HCG27,0,9.3,15.6,2.9,inactive
